Cleaved PARP after 72 h of treatment

From a melanoma drug combination screen (doi:10.1371/journal.pone.0140310); values rounded.

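The test systems are human melanoma cell lines, treated with a pair of drugs for 72 h and then stained and imaged. Each value is the cleaved-PARP-positive fraction of nuclei relative to DMSO-treated wells, in %, so that 100 equals the control and higher values mean more apoptosis. Every drug was used at one fixed concentration, the higher of two screened. These are primary screening values without error estimates. Basal and induced levels differ widely between cell lines.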
An unselected part of the screen is shown.

All values are for the listed drug together with veliparib (7000 nM): C[C@]1(c2nc3c(C(N)=O)cccc3[nH]2)CCCN1

Drugs:
tamatinib (2000 nM): COc1cc(Nc2ncc(F)c(Nc3ccc4c(n3)NC(=O)C(C)(C)O4)n2)cc(OC)c1OC
decitabine (500 nM): Nc1ncn([C@H]2C[C@H](O)[C@@H](CO)O2)c(=O)n1
CX-4945 (2000 nM): O=C(O)c1ccc2c(c1)nc(Nc1cccc(Cl)c1)c1ccncc12
ENMD-2076 (200 nM): Cc1cc(Nc2cc(N3CCN(C)CC3)nc(/C=C/c3ccccc3)n2)n[nH]1
nilotinib (1000 nM): Cc1cn(-c2cc(NC(=O)c3ccc(C)c(Nc4nccc(-c5cccnc5)n4)c3)cc(C(F)(F)F)c2)cn1
GW9662 (10000 nM): O=C(Nc1ccccc1)c1cc([N+](=O)[O-])ccc1Cl
MK-1775 (100 nM): C=CCn1c(=O)c2cnc(Nc3ccc(N4CCN(C)CC4)cc3)nc2n1-c1cccc(C(C)(C)O)n1
PF-562271 (400 nM): CN(c1ncccc1CNc1nc(Nc2ccc3c(c2)CC(=O)N3)ncc1C(F)(F)F)S(C)(=O)=O
U73122 (2000 nM): COc1ccc2c(c1)CCC1C2CCC2(C)C(NCCCCCCN3C(=O)C=CC3=O)CCC12 (stereo unspecified)
BI-D1870 (1000 nM): CC(C)CCN1c2nc(Nc3cc(F)c(O)c(F)c3)ncc2N(C)C(=O)C1C (stereo unspecified)
dasatinib (20 nM): Cc1nc(Nc2ncc(C(=O)Nc3c(C)cccc3Cl)s2)cc(N2CCN(CCO)CC2)n1
bexarotene (10000 nM): C=C(c1ccc(C(=O)O)cc1)c1cc2c(cc1C)C(C)(C)CCC2(C)C
perifosine (2000 nM): CCCCCCCCCCCCCCCCCCOP(=O)([O-])OC1CC[N+](C)(C)CC1
KU-0063794 (100 nM): COc1ccc(-c2ccc3c(N4CCOCC4)nc(N4C[C@@H](C)O[C@@H](C)C4)nc3n2)cc1CO
LFM-A13 (10000 nM): C/C(O)=C(\C#N)C(=O)Nc1cc(Br)ccc1Br
IMD-0354 (80 nM): O=C(Nc1cc(C(F)(F)F)cc(C(F)(F)F)c1)c1cc(Cl)ccc1O
AS-252424 (5000 nM): O=C1NC(=O)/C(=C/c2ccc(-c3ccc(F)cc3O)o2)S1
L-779450 (1000 nM): Oc1cc(-c2nc(-c3ccccc3)[nH]c2-c2ccncc2)ccc1Cl
selumetinib (75 nM): Cn1cnc2c(F)c(Nc3ccc(Br)cc3Cl)c(C(=O)NOCCO)cc21
GW441756 (2000 nM): Cn1cc(/C=C2\C(=O)Nc3cccnc32)c2ccccc21
AZD7762 (100 nM): NC(=O)Nc1cc(-c2cccc(F)c2)sc1C(=O)N[C@H]1CCCNC1
GSK650394 (800 nM): O=C(O)c1ccc(-c2c[nH]c3ncc(-c4ccccc4)cc23)cc1C1CCCC1
SNS-314 (4 nM): O=C(Nc1cccc(Cl)c1)Nc1ncc(CCNc2ncnc3ccsc23)s1
CHIR-265 (400 nM): Cn1c(Nc2ccc(C(F)(F)F)cc2)nc2cc(Oc3ccnc(-c4ncc(C(F)(F)F)[nH]4)c3)ccc21
OSI-906 (2000 nM): C[C@]1(O)C[C@@H](c2nc(-c3ccc4ccc(-c5ccccc5)nc4c3)c3c(N)nccn32)C1
dorsomorphin (2000 nM): c1cc(-c2cnn3cc(-c4ccc(OCCN5CCCCC5)cc4)cnc23)ccn1
lapatinib (4000 nM): CS(=O)(=O)CCNCc1ccc(-c2ccc3ncnc(Nc4ccc(OCc5cccc(F)c5)c(Cl)c4)c3c2)o1
tozasertib (30 nM): Cc1cc(Nc2cc(N3CCN(C)CC3)nc(Sc3ccc(NC(=O)C4CC4)cc3)n2)n[nH]1
vismodegib (5000 nM): CS(=O)(=O)c1ccc(C(=O)Nc2ccc(Cl)c(-c3ccccn3)c2)c(Cl)c1
MK-2206 (2000 nM): NC1(c2ccc(-c3nc4ccn5c(=O)[nH]nc5c4cc3-c3ccccc3)cc2)CCC1
SNS-032 (50 nM): CC(C)(C)c1cnc(CSc2cnc(NC(=O)C3CCNCC3)s2)o1
lenalidomide (5000 nM): Nc1cccc2c1CN(C1CCC(=O)NC1=O)C2=O (stereo unspecified)
vatalanib (10000 nM): Clc1ccc(Nc2nnc(Cc3ccncc3)c3ccccc23)cc1
vorinostat (400 nM): O=C(CCCCCCC(=O)Nc1ccccc1)NO
cediranib (2000 nM): COc1cc2c(Oc3ccc4[nH]c(C)cc4c3F)ncnc2cc1OCCCN1CCCC1
CP-690550 (5000 nM): C[C@@H]1CCN(C(=O)CC#N)C[C@@H]1N(C)c1ncnc2[nH]ccc12
embelin (6000 nM): CCCCCCCCCCCC1=C(O)C(=O)C=C(O)C1=O

Partner	LOX IMVI
GSK650394	176
SNS-314	50.3
GW441756	94.9
MK-1775	75.4
cediranib	132
GW9662	17.2
L-779450	854
MK-2206	95.4
lapatinib	84.5
vorinostat	169
vismodegib	150
tozasertib	110
CHIR-265	60.6
vatalanib	226
lenalidomide	100
selumetinib	288
KU-0063794	31.2
PF-562271	68.6
CP-690550	53.1
embelin	484
BI-D1870	318
bexarotene	148
decitabine	79.3
SNS-032	38.9
LFM-A13	72.4
dorsomorphin	70.0
U73122	153
nilotinib	95.7
AS-252424	141
AZD7762	103
ENMD-2076	90.8
IMD-0354	192
dasatinib	1030
CX-4945	194
tamatinib	365
perifosine	70.3
OSI-906	126

Some entries from above, unchanged:

Partner,LOX IMVI
ENMD-2076,90.8
BI-D1870,318
AZD7762,103
lapatinib,84.5